Patent US4331661A (The Salk Institute for Biological Studies, priority 1980, dated 1982)
Some peptides are written in HELM: one residue between dots, names in brackets for other building blocks, links after the first $.

Assay: general procedure: Boc solid-phase peptide synthesis; chloromethylated resin, methylbenzhydrylamine (MBHA) resin or benzhydrylamine (BHA) resin
Conditions: whole synthesis, scale of the general procedure 5 grams of resin

PEPTIDE1{[ac].H.W.A.V.G.H.L.M.[am]}$$$$V2.0
final purity (method not given): greater than 98%
